Source: PubChem BioAssay AID720504 (National Center for Advancing Translational Sciences (NCATS), 2013)
In all, about 360,000 compounds went through this assay and about 10,000 (2.8%) were called active. The inconclusive results got no clear call from the source; some entries with a clear call stand among them for comparison. The call rests on the fitted dose curve; in most records, active means well fitted inhibition curve with a large enough effect; inconclusive means small, poorly fitted or top-dose-only effect; inactive means flat fitted curve, though single readings scatter. A potency beside an inconclusive call is a rough fit, not a confirmed value.

The chains behind the UniProt entries cited, without tags or fusion partners.
UniProt P53350, whole entry, looked up: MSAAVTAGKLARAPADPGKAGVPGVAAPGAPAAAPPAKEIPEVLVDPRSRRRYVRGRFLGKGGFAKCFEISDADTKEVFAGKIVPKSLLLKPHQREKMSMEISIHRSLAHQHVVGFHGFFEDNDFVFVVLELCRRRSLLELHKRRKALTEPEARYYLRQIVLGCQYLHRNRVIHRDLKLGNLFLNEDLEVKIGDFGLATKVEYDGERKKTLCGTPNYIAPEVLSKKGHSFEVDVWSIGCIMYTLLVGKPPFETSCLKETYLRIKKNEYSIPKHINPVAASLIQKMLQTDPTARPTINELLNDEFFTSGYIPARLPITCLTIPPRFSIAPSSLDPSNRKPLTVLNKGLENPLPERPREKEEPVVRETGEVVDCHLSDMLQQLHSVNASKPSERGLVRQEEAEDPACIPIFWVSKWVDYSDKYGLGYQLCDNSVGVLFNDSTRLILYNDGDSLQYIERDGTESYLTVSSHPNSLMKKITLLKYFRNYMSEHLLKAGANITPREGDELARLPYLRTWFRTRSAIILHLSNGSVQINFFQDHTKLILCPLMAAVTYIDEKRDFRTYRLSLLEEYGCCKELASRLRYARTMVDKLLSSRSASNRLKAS

The compounds below were run against Serine/threonine-protein kinase PLK1 (Homo sapiens) (UniProt P53350) (assay: qHTS for Inhibitors of PLK1-PDB (polo-like kinase 1 - polo-box domain): Primary Screen). Conditions: Plk1 PBD binding of FITC phosphopeptide, fluorescence polarization.
Further: nearly all actives have a fitted effect of over 65% in size.
On the % scale 0 is the no-effect control and ±100 the full control effect; potency means the concentration at half of the fitted maximal effect.
Wherever max response, negative = inhibition is given: series mostly up to about 57 µM.

Row | Structure (SMILES) | Potency | max response, negative = inhibition
1 | CCc1nnc(NS(=O)(=O)c2ccc(N=Cc3c(C)[nH]n(-c4ccc(C)c(C)c4)c3=O)cc2)s1 | inconclusive: 37.7 µM [inhibitor, single point] | –
2 | COCC(=O)N1CCC(n2nnc3cc(C(F)(F)F)ccc32)CC1 | inconclusive: 8.44 µM [inhibitor, single point] | –
3 | COc1cc(C2NC(=O)C(C#N)=C(Nc3cccc(C)c3)S2)ccc1O (configuration not stated) | inconclusive: 26.7 µM [inhibitor, partial curve] | –
4 | Cc1ccccc1OCc1nnc(SCC(=O)NC2CCCCC2)o1 | inconclusive: 18.9 µM [inhibitor, partial curve] | –
5 | CSc1nc(N)nc(SCCS(=O)(=O)c2ccc(Cl)cc2)c1C#N | – | inactive: -2.34%
6 | CC(=O)N1CCc2cc(S(=O)(=O)CCC(=O)N3CCN(C(=O)c4ccco4)CC3)ccc21 | inconclusive: 29.9 µM [inhibitor, partial curve] | –
7 | O=C(O)c1cc(-c2ccc(-c3c(-c4ccc5c(c4)OCO5)noc3-c3ccsc3)cc2)nc2ccccc12 | active: 16.8 µM | –
8 | O=C(O)CC1S/C(=N/N=C/c2ccc(-c3ccc(Cl)cc3[N+](=O)[O-])o2)NC1=O (configuration not stated) | active: 16.8 µM | –
9 | CCOC(=O)c1ccc(NC(=O)Cn2ncc(Cl)c(Cl)c2=O)cc1 | inconclusive: 26.7 µM [inhibitor, partial curve] | –
10 | Cc1ccc(SC2=C(N(C)C)C(=O)c3ccccc3C2=O)cc1 | inconclusive: 15 µM [inhibitor, partial curve] | –
11 | O=C([C@H]1O[C@@H](n2ccc(=O)[nH]c2=O)[C@H](O)[C@@H]1O)N1CCSC1 | – | inactive: 6.88%
12 | COc1ccccc1C1C(C(=O)c2ccc(C)o2)=C(O)C(=O)N1c1cc(C)on1 (configuration not stated) | inconclusive: 23.8 µM [inhibitor, partial curve] | –
13 | COC(=O)c1ccc(C2C(C(=O)c3cc4ccccc4o3)=C(O)C(=O)N2c2cc(C)on2)cc1 (configuration not stated) | inconclusive: 37.7 µM [inhibitor, single point] | –
14 | Cc1c(C(=O)N2CCOCC2)c(S(=O)(=O)Nc2cccc(Br)c2)c(C)n1C | active: 26.7 µM | –
15 | O=C(Cn1cc(/C=N/O)c2ccccc21)N1CCOCC1 | inconclusive: 26.7 µM [inhibitor, partial curve] | –
16 | CC(C)Sc1nc2c(c(=O)[nH]1)C(c1cccs1)C1=C(CC(C)(C)CC1=O)N2 (configuration not stated) | inconclusive: 26.7 µM [inhibitor, single point] | –
17 | COc1ccc(N2CCN(C(=O)c3cc4c(-c5cccc(OC)c5)nn(C)c4s3)CC2)cc1 | active: 26.7 µM | –
18 | CN(CC(=O)Nc1ccccc1Cl)C1CCCCC1 | – | inconclusive: -33.7% [inhibitor]
19 | CCCN(CCC)S(=O)(=O)c1ccc(C(=O)Nc2nnc(CSC)o2)cc1 | inconclusive: 26.7 µM [inhibitor, single point] | –
20 | Oc1ccc(NCc2ccc(OCc3ccccc3)cc2)cc1 | – | inactive: -9.5%
21 | Cc1[nH]c2ccc(-c3n[nH]c(=S)n3-c3ccc(Br)cc3)cc2c1C | inconclusive: 47.4 µM [inhibitor, partial curve, poor fit] | –
22 | Cc1ccc(SCc2[nH]nc3c2C(c2cccnc2)C(C#N)=C(N)O3)cc1 (configuration not stated) | inconclusive: 29.9 µM [inhibitor, single point] | –
23 | O=C(Cc1cnn(-c2ccccc2)c1)c1ccc(O)c(O)c1O | inconclusive: 33.6 µM [inhibitor, single point] | –

Row | Structure (SMILES) | Potency | max response, negative = inhibition
24 | Cc1ccc(C2C(C#N)=C(N)Oc3n[nH]c(-c4cccs4)c32)cc1 (configuration not stated) | inconclusive: 13.4 µM [inhibitor, partial curve] | –
25 | CC(=O)Nc1ccc(SCC(=O)c2cc(C)ccc2C)cc1 | active: 18.9 µM | –
26 | CCOC(=O)C1(Cc2ccc(Cl)cc2)CCN(C(=O)CCc2cnccn2)CC1 | – | inactive: -14.9%
27 | COc1ccc(C(=O)CSc2nccc(=O)[nH]2)cc1 | – | inactive: -2.62%
28 | COc1ccc(C(=O)N/N=C(\C)c2ccc3c(c2)C2C=CCC2C(c2ccccc2)N3)cc1 (configuration not stated) | inconclusive: 18.9 µM [inhibitor, partial curve] | –
29 | CN(CC(=O)Nc1ccccc1Sc1ccccc1)C1CCCCC1 | – | inactive: -18.2%
30 | CCOc1ccc(C2CC(c3ccc(CC)cc3)n3nc(N)nc3N2)cc1 (configuration not stated) | inconclusive: 23.8 µM [inhibitor, partial curve] | –
31 | COc1cc(C(=O)Nc2ccc(Cl)c([N+](=O)[O-])c2)cc(OC)c1OC | – | inactive: -7.44%
32 | CCOC(=O)Cc1c(C)nc2cc(-c3ccc(C)cc3)[nH]n2c1=O | inconclusive: 29.9 µM [inhibitor, single point] | –
33 | Fc1ccc(-c2ccc3c(c2)C2CC3CCN2)cc1 (configuration not stated) | – | inactive: -4.16%
34 | Cc1nc(=O)c(-c2ccccc2)c(C)n1CCCO | inconclusive: 26.7 µM [inhibitor, partial curve] | –
35 | Cc1cc(N=NC(=O)c2ccccc2)ccc1O | inconclusive: 37.7 µM [inhibitor, partial curve] | –
36 | CCN(CC(=O)Nc1ccc(N2CCOCC2)cc1)Cc1nc2ccccc2c(=O)[nH]1 | – | inactive: -5.59%
37 | COC(=O)c1ccc(CSC2=NC[C@@H]3[C@@H]4C(=O)N(Cc5ccccc5)C(=O)[C@@H]4[C@](Cc4ccccc4)(C(=O)OC)N23)cc1 | – | inactive: -3.57%
38 | O=C(CN1C(=O)N/C(=C\c2ccccc2OCc2ccc(C(=O)O)cc2)C1=O)Nc1ccccc1F | inconclusive: 26.7 µM [inhibitor, single point] | –
39 | O=C1Nc2ccccc2C(=O)N2[C@H](c3ccccc3)[C@@H]3C(=O)N(Cc4ccccc4)C(=O)[C@@H]3[C@H]12 | inconclusive: 29.9 µM [inhibitor, single point] | –
40 | CC(C)(C)c1cc(-c2ccco2)c(C#N)c(SCC#N)n1 | inconclusive: 23.8 µM [inhibitor, partial curve] | –
41 | COc1ccccc1-n1c(=S)[nH]c2c(sc(=S)n2-c2ccccc2C)c1=O | active: 26.7 µM | –
42 | Cc1cc(C(=O)COc2ccc3ccc(=O)oc3c2)c(C)n1C | – | inconclusive: -34.6% [inhibitor]
43 | O=C(NCCCc1ccccn1)C1CCC(=O)N(Cc2cccc(F)c2)C1 (configuration not stated) | – | inactive: -12.9%
44 | NNC(=O)c1cc2c(ccc3ccccc32)o1 | – | inactive: -21.8%
45 | COc1ccc(-c2cc(C)no2)cc1S(=O)(=O)NCCc1ccco1 | inconclusive: 23.8 µM [inhibitor, partial curve] | –
46 | Nn1c(SCc2c(F)cccc2F)nnc1-c1ccccn1 | – | inactive: -5.52%

Row | Structure (SMILES) | Potency | max response, negative = inhibition
47 | CCN(CC)S(=O)(=O)c1ccc2c(c1)nc(SCn1nnc3ccccc3c1=O)n2CC | inconclusive: 23.8 µM [inhibitor, partial curve] | –
48 | Cc1cc(C([O-])=C(C(=S)Nc2ccccc2)[n+]2ccccc2)c(C)n1-c1ccccc1 | inconclusive: 29.9 µM [inhibitor, partial curve] | –
49 | CCCc1cc(=O)oc2cc(OC(=O)CN3C(=O)NC4(CCCC4)C3=O)ccc12 | – | inconclusive: -30.4% [inhibitor]
50 | Cc1ccc(C2=[N+]([O-])C(C)(C)CC2)cc1 | inconclusive: 33.6 µM [inhibitor, single point] | –
51 | Cn1c(=O)c2c(nc(SCc3cccnc3)n2Cc2ccc(F)cc2)n(C)c1=O | inconclusive: 37.7 µM [inhibitor, single point] | –
52 | COc1ccc(CCC(=O)NNC(=O)Nc2ccc(OC)c(OC)c2)cc1 | – | inactive: 2.31%
53 | O=c1cc(C(F)(F)F)nc(SCc2cccc3ccccc23)[nH]1 | active: 29.9 µM | –
54 | CC(C)(C)N(Cc1ccc2c(c1)OCO2)C(=O)/C=C\S(=O)c1ccccc1 (configuration not stated) | – | inconclusive: -31.4% [inhibitor]
55 | O=C(NCc1ccco1)C1CCCN(S(=O)(=O)c2ccc(Br)cc2)C1 (configuration not stated) | – | inconclusive: -35.3% [inhibitor]
56 | CC(Sc1cccc[n+]1[O-])C(=O)Nc1cccc(S(=O)(=O)N2CCOCC2)c1 (configuration not stated) | inconclusive: 9.47 µM [inhibitor, partial curve] | –
57 | N=C1CCC(=N)c2c1c(O)c1ccccc1c2O | inconclusive: 13.4 µM [inhibitor, partial curve] | –
58 | CC(C)OC(=O)c1c(NC(=O)CCn2nnc3ccccc32)sc2c1CCCC2 | inconclusive: 26.7 µM [inhibitor, single point] | –
59 | CCCOC(=O)C1=C(C)N(C)C(=O)NC1c1cc2c(cc1[N+](=O)[O-])OCO2 (configuration not stated) | inconclusive: 26.7 µM [inhibitor, single point] | –
60 | Cc1cc2cc(CNC(=O)c3ccc4c(c3)OCO4)ccc2[nH]1 | – | inactive: -4.46%
61 | CCC(=O)Nc1ccc(C(=O)N/N=C/c2c(C)[nH]c3ccccc23)cc1 | inconclusive: 37.7 µM [inhibitor, partial curve] | –
62 | O=C(Nc1ccc(S(=O)(=O)Nc2nccs2)cc1)c1nn(-c2ccccc2)ccc1=O | inconclusive: 18.9 µM [inhibitor, partial curve] | –
63 | CC1CCCCN1C(=O)CSc1nc(C2CC2)nc2c1cnn2-c1ccccc1 (configuration not stated) | active: 26.7 µM | –
64 | O=C(/C=C/c1cccc([N+](=O)[O-])c1)Nc1cccc(NC(=O)c2cccs2)c1 | inconclusive: 29.9 µM [inhibitor, single point] | –
65 | Nc1ccc(S(=O)(=O)N2CCOCCOCCOCCOCCOCC2)cc1 | inconclusive: 33.6 µM [inhibitor, partial curve] | –
66 | S=c1[nH]nc(-c2c[nH]c3ccccc23)o1 | inconclusive: 16.8 µM [inhibitor, partial curve] | –
67 | CCN(C(=O)CSc1nncs1)c1c(N)n(Cc2ccccc2)c(=O)[nH]c1=O | – | inactive: -4.87%

Rewritten in markdown: entries from further up

| Row | Structure (SMILES) | Potency | max response, negative = inhibition |
| --- | --- | --- | --- |
| 56 | CC(Sc1cccc[n+]1[O-])C(=O)Nc1cccc(S(=O)(=O)N2CCOCC2)c1 (configuration not stated) | inconclusive: 9.47 µM [inhibitor, partial curve] | – |
| 57 | N=C1CCC(=N)c2c1c(O)c1ccccc1c2O | inconclusive: 13.4 µM [inhibitor, partial curve] | – |
| 58 | CC(C)OC(=O)c1c(NC(=O)CCn2nnc3ccccc32)sc2c1CCCC2 | inconclusive: 26.7 µM [inhibitor, single point] | – |
| 59 | CCCOC(=O)C1=C(C)N(C)C(=O)NC1c1cc2c(cc1[N+](=O)[O-])OCO2 (configuration not stated) | inconclusive: 26.7 µM [inhibitor, single point] | – |
